Binding data for one substance are collected here from publication PMC8967061.

Amino acid sequences for entries named in this document (tags omitted). Residues count along the entry.
UniProt P08603, residues 19-1231: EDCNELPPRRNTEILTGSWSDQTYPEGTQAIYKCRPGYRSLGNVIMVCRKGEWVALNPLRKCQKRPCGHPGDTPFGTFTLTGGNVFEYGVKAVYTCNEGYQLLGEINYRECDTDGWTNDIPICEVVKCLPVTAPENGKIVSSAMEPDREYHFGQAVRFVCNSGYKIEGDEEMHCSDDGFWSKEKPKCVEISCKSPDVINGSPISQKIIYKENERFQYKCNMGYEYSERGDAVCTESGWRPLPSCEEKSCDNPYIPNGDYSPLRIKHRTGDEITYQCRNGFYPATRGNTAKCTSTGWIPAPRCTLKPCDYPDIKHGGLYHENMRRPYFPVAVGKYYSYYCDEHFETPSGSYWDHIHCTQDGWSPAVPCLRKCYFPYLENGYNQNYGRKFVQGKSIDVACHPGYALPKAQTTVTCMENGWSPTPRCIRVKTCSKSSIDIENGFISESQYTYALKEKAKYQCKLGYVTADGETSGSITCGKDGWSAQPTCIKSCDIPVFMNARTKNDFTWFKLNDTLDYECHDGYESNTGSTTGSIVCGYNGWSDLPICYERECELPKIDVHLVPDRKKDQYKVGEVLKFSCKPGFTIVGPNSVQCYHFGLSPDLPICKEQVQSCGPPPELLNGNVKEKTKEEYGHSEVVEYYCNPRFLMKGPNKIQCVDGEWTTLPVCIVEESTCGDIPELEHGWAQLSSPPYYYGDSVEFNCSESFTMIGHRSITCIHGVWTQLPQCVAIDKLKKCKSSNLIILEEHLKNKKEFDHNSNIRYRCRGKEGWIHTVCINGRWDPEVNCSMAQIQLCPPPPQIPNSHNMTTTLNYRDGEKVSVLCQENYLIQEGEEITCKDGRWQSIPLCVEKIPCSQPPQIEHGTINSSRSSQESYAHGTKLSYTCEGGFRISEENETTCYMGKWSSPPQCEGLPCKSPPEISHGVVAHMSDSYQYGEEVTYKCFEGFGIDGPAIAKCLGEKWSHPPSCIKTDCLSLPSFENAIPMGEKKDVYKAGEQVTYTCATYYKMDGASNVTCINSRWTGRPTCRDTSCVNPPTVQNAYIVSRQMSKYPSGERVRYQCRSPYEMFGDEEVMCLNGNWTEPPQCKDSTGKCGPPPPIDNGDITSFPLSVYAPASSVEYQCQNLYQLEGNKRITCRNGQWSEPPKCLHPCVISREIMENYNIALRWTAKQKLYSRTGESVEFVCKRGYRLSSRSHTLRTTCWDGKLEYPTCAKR

No constants are given. Whether binding was seen depends on the method and setting.

This test deals with Factor H, full length (human) (UniProt P08603). As to the kind of experiment: MST; full-length FH labelled with RED-tris-NTA dye, FhbA proteins titrated, PBS/0.025% Tween-20, 22 C; both purified.

On to “BhFhbA Phe154Ala (from UniProt W5SB08 44-202) (domain or fragment)”, for which the binding entry is listed as “no binding”.
